Source: paper PMC11856406
These are yes or no findings as the source states them, for the method shown. Binding seen in cells or lysates may run through a third protein. Some binding calls cover weakened binding; strength is not graded here.

By UniProt entry, the sequences of proteins in these tests, tags left out.
UniProt B2RWS6: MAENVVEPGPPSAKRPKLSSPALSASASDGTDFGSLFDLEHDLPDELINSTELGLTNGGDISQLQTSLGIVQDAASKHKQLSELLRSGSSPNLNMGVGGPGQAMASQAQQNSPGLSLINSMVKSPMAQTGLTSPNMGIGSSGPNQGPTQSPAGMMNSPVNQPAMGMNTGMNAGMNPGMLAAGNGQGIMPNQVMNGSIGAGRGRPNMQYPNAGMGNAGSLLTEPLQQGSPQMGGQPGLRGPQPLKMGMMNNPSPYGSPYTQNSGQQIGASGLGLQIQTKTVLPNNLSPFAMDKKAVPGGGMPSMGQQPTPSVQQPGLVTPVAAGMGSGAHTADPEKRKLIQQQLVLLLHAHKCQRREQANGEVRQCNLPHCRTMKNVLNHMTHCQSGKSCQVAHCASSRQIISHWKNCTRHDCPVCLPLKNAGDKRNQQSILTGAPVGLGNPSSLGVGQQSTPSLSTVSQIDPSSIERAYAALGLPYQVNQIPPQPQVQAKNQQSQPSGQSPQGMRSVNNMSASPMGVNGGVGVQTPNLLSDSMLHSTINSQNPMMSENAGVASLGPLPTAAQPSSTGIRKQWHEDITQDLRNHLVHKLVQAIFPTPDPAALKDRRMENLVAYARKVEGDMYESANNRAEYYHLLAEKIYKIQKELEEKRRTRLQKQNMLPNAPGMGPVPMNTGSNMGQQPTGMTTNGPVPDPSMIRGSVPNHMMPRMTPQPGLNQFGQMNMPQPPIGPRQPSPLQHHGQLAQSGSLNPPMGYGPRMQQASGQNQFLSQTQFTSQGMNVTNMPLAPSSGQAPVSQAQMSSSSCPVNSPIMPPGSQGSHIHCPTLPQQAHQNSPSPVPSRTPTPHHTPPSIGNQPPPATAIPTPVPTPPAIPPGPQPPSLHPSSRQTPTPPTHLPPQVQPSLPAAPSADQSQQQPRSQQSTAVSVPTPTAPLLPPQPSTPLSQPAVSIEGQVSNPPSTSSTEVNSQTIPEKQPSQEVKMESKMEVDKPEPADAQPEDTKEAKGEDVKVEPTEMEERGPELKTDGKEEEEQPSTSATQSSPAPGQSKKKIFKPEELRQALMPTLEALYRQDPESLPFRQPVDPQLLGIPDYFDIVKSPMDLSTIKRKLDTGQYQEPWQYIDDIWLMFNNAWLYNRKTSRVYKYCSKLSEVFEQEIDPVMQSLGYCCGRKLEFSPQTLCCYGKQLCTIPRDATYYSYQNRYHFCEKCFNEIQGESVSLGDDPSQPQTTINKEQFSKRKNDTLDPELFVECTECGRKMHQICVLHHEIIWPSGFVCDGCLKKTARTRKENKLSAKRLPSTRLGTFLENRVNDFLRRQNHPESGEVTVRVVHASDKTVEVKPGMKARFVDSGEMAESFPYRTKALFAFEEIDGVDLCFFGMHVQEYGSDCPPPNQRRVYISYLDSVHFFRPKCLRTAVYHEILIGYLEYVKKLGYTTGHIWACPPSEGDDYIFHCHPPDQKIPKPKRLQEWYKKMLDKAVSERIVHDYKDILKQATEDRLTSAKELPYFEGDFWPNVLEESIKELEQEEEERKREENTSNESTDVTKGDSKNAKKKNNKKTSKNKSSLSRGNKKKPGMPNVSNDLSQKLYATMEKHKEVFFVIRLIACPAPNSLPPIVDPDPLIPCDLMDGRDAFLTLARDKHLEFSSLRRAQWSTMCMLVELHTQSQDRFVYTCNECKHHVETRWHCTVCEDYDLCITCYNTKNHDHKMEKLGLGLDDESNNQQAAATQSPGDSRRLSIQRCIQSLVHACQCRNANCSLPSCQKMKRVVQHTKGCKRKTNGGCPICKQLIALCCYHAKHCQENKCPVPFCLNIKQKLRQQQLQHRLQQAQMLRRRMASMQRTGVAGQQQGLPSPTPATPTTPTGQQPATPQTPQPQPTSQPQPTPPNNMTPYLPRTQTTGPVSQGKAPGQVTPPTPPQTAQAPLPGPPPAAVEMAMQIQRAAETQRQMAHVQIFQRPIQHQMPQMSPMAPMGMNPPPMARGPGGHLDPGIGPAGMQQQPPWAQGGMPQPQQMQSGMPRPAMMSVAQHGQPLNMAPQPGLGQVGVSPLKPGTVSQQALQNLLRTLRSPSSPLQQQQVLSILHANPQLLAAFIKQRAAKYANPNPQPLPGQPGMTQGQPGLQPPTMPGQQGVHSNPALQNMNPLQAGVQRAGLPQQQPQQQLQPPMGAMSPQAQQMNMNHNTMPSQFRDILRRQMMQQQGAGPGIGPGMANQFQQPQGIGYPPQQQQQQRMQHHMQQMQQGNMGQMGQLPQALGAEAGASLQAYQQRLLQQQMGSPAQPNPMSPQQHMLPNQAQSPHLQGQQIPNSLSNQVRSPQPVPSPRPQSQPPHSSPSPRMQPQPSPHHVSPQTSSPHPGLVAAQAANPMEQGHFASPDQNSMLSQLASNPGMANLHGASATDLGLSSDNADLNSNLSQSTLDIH
UniProt Q6DIC0: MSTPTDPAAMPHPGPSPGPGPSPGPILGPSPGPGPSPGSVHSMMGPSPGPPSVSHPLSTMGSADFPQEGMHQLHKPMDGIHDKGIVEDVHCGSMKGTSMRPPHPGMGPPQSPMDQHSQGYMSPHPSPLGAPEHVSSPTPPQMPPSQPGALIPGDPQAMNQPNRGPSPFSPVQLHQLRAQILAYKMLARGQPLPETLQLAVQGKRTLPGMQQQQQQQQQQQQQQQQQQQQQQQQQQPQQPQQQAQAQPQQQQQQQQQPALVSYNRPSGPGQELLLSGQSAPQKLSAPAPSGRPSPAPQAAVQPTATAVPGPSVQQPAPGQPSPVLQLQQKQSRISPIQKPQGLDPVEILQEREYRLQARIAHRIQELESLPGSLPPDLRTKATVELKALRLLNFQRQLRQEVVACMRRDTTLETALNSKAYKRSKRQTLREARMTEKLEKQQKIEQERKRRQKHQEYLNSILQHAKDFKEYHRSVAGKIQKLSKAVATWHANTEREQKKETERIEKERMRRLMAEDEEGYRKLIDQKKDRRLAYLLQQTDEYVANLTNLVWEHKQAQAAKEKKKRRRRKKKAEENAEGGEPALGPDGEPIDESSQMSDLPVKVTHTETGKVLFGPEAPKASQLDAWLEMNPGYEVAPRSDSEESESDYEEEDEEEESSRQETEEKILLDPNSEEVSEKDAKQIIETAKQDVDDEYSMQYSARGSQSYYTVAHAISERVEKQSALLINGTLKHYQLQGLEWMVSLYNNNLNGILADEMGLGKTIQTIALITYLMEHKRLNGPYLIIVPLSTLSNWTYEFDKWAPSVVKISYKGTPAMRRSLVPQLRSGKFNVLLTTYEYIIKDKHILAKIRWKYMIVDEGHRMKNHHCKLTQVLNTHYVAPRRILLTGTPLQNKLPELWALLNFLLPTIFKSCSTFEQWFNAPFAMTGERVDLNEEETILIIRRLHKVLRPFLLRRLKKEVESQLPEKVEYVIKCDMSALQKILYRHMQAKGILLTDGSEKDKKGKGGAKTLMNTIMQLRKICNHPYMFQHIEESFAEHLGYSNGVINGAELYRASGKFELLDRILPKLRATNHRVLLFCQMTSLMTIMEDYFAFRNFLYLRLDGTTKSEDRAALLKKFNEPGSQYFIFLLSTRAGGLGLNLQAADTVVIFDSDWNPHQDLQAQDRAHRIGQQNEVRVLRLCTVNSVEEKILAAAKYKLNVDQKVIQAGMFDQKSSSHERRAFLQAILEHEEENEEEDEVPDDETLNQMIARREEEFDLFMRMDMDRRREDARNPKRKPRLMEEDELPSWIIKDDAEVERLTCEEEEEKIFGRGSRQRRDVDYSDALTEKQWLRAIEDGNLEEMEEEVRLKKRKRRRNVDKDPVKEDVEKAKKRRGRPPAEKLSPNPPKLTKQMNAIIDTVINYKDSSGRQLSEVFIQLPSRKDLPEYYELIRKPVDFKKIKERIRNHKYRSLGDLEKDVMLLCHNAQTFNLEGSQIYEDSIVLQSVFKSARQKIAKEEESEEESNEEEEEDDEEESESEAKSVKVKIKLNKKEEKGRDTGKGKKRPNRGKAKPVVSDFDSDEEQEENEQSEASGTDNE

How the values were obtained:
Assay in all cases: proximity ligation; in situ Duolink PLA (distances < 40 nm) at endogenous protein levels on primary cortical neurons fixed at DIC7, wild-type and 189N3 transgenic; interaction points counted in the nuclear body of 45 to 89 neurons
[1] = target: CREBBP (mouse (endogenous in primary cortical neurons)) (UniProt P45481)
[2] = target: EP300 (mouse (endogenous in primary cortical neurons)) (UniProt B2RWS6)
[3] = target: SMARCA2 (mouse (endogenous in primary cortical neurons)) (UniProt Q6DIC0)

| Substance | binding [1] | binding [2] | binding [3] |
| --- | --- | --- | --- |
| DYRK1A (dual-specificity tyrosine phosphorylated and regulated kinase 1A) (from UniProt Q61214 1-763) | binds | binds | – |
| CREBBP (from UniProt P45481 1-2441) | – | – | binds |
